PubChem BioAssay AID1224830 | NIAID | 2016

Assay: 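Genes whose knock-down alters the TNF-alpha reporter response to LPS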 (primary screen)
Cell system: human THP-1 monocytic leukaemia cells, TNF dual-luciferase reporter clone, PMA-differentiated to macrophage-like cells
Reagents: siRNA pool against human genes, 50 nM
Duration: LPS for 4 h, given about 3 days after siRNA transfection
Conditions: bacterial LPS (TLR4 ligand), 10 ng/ml
Detection: 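TNF firefly reporter luminescence divided by renilla, normalised to the plate median, then turned into a robust z-score for each replicate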
Scale: TNF reporter robust z-score: higher = stronger TNF reporter response to LPS
Rule for the call: 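Each well counts as active if its z-score is over 2.8 or under -1.5; controls are left without a call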
This is one part, drawn at random, of about 18,000 reagents tested. In the full data, about 2,900 (16%) are marked active. 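Calls are made per well; low scores hint the gene aids the LPS response, high scores that it dampens it.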 Repeated entries: four replicate wells of each siRNA pool.

no.	Target gene	TNF reporter robust z-score	Call
1	ENPP1	0	inactive
2	ENPP1	-0.03	inactive
3	ENPP1	-0.62	inactive
4	ENPP1	0.25	inactive
5	TSLIG3A	-0.52	inactive
6	TSLIG3A	0.39	inactive
7	TSLIG3A	0.12	inactive
8	TSLIG3A	0.2	inactive
9	ANAPC15	-0.87	inactive
10	ANAPC15	0.97	inactive
11	ANAPC15	-0.09	inactive
12	ANAPC15	0.21	inactive
13	ZNF561	-1.29	inactive
14	ZNF561	-1.25	inactive
15	ZNF561	-1.94	active
16	ZNF561	-0.95	inactive
17	SEPTIN6	-0.19	inactive
18	SEPTIN6	-0.37	inactive
19	SEPTIN6	-1.55	active
20	SEPTIN6	-0.96	inactive
21	HIPK3	-1.43	inactive
22	HIPK3	-1.14	inactive
23	HIPK3	0.87	inactive
24	HIPK3	1.02	inactive
25	IKZF2	-0.8	inactive
26	IKZF2	0.47	inactive
27	IKZF2	-0.69	inactive
28	IKZF2	1.15	inactive
29	TEX12	-0.6	inactive
30	TEX12	-0.4	inactive
31	TEX12	-0.8	inactive
32	TEX12	1.66	inactive
33	LCT	-0.08	inactive
34	LCT	-0.03	inactive
35	LCT	0.9	inactive
36	SLC28A3	0.65	inactive
37	SLC28A3	1.15	inactive
38	SLC28A3	0.37	inactive
39	SLC28A3	0.8	inactive
40	PAOX	-1.16	inactive
41	PAOX	-1.23	inactive
42	PAOX	-1.24	inactive
43	PAOX	-0.94	inactive
44	CYP2B6	-0.11	inactive
45	CYP2B6	-0.03	inactive
46	CYP2B6	1.04	inactive
47	CYP2B6	0.64	inactive
48	EFNA5	0.53	inactive
49	EFNA5	-0.19	inactive
50	EFNA5	0.42	inactive
51	EFNA5	1.54	inactive

Entries listed so far with an active call (2):
Target gene	TNF reporter robust z-score	Call
ZNF561	-1.94	active
SEPTIN6	-1.55	active

The results go on.
no.	Target gene	TNF reporter robust z-score	Call
52	SNRPD3	-1.41	inactive
53	SNRPD3	-1.03	inactive
54	SNRPD3	-1.49	inactive
55	SNRPD3	-1.51	active
56	SFRP4	0.03	inactive
57	SFRP4	1.08	inactive
58	SFRP4	-0.57	inactive
59	SFRP4	-0.15	inactive
60	MMAB	0.31	inactive
61	MMAB	0.19	inactive
62	MMAB	0.47	inactive
63	MMAB	1.29	inactive
64	CLIP2	0.16	inactive
65	CLIP2	0.91	inactive
66	CLIP2	-0.11	inactive
67	CLIP2	-0.6	inactive
68	RPS11	2.44	inactive
69	RPS11	2.85	active
70	RPS11	1.34	inactive
71	RPS11	3	active
72	PRKAG1	-0.49	inactive
73	PRKAG1	-1.25	inactive
74	PRKAG1	-0.38	inactive
75	PRKAG1	0.02	inactive
76	TSPAN5	-0.79	inactive
77	TSPAN5	-0.34	inactive
78	TSPAN5	-1.39	inactive
79	TSPAN5	-0.49	inactive
80	TASOR	1.3	inactive
81	TASOR	4.74	active
82	TASOR	3.41	active
83	TASOR	3.96	active
84	PPP1R3F	-1.29	inactive
85	PPP1R3F	-0.91	inactive
86	PPP1R3F	-0.87	inactive
87	PPP1R3F	-1.11	inactive
88	GKN2	2.21	inactive
89	GKN2	2	inactive
90	GKN2	0.49	inactive
91	GKN2	1.89	inactive
92	DLX4	-1.53	active
93	DLX4	-0.79	inactive
94	DLX4	-1.15	inactive
95	DLX4	-0.98	inactive
96	REG1B	1.77	inactive
97	REG1B	0.65	inactive
98	REG1B	2.86	active
99	REG1B	1.85	inactive
100	GRB14	-0.13	inactive
101	GRB14	-0.45	inactive
102	GRB14	0.34	inactive
103	PLA2G4A	-0.93	inactive
104	PLA2G4A	-1.05	inactive
105	PLA2G4A	-1.17	inactive
106	PLA2G4A	-0.83	inactive
107	TTLL8	1.26	inactive
108	TTLL8	-0.05	inactive
109	TTLL8	-0.24	inactive
110	TTLL8	1.96	inactive
